Test results: US20100210567A1, “USE OF A TUFTSIN AS A THERAPEUTIC AGENT” (priority 2007, published 2010)
Part of at least one peptide drawing is inferred or uncertain, most often the ends. Residues, ends and D or L forms follow the SMILES beside them.

What was measured:
[1] = tested on: hepatitis B virus (HBV) ayw strain; test: HBV assay: secreted HBV DNA by TaqMan PCR in HepG2-2.2.15 cells; conditions: test peptide 10 micrograms per ml; six days; HBV DNA in supernatant by TaqMan PCR
HCMV strain AD169 = test: HCMV plaque reduction assay in MRC-5 cells; type: cell-based; conditions: HCMV AD169 in MRC-5 cells; peptide 10 micrograms per ml; 7-10 days

For `C[C@@H](O)[C@H](N)C(=O)N[C@@H](CCCCN)C(=O)N1CCC[C@H]1C(=O)N[C@@H](CCCNC(=N)N)C(=O)O` [Tuftsin, Thr-Lys-Pro-Arg-OH] (H-TKPR-OH), the “% inhibition of HBV replication in HEP G2 cells” value [1] was 41.2% and the “% plaque reduction” value (HCMV strain AD169) was 0.0%.
